The text below walks through data of PubChem BioAssay AID1508600 (Functional Genomics Laboratory (NCATS/FGL), 2020).

Out of some 53,000 sequences screened, about 3,700 (7%) were called active.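 The calls were made as follows: active = gene knockdowns whose robust z-score for IL-1 alpha signal is at least 2 or at most -2, so actives lie on both sides; inactive = the rest.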 The list shows a part of the results.

The experiment can be described thus: Components of the Cytosolic LPS Sensing Pathway: Gene Identification via Genome-wide siRNA Screen.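 Also: robust z of the log signal after scaling to non-targeting control siRNA wells of the plate.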 The settings on record: RAW264.7 macrophages, IL-1a HTRF, actives lie on both sides, screened at 100 nM (by protocol), cells primed 5 h with Pam3CSK4 first. Put shortly: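 RAW264.7 mouse macrophages reverse-transfected with single siRNAs (100 nM final) for 48h, primed with Pam3CSK4 for 5 hours, then transfected with LipidA for 24 hour. Supernatant IL-1a read by HTRF; values normalized to negative-control median, log-transformed robust z-scores.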
For orientation: TR-FRET usually uses a lanthanide donor and a delayed reading to cut background.
Consider GCCUACAAGCAGGUACUAUTT against Olfr30, for which the z-score is inactive: -1.37.
As to GGCAUCCUGUCUGUUAUCUTT against Ptdss1, the z-score was inactive: -1.76.
Take GCAAGAUGCAGGAUUGUAATT against Gprc5d: the z-score was inactive: -0.852.
For the sequence GGAAAUGUGUACAAGAACCTT against Ms4a4b, the z-score is inactive: 1.83.
On to GGUAGACCUAGAACAGCACTT against Ttyh2, for which the z-score was inactive: -0.495.
The result for GCAUGGAAUCACGAAGUAGTT against Cwc22 reads inactive: -0.42.
Consider GGUAUCACUACUUUUUAGUTT against Eri3, for which the z-score was inactive: -0.742.
As for GGCAGAUGUGAAAAGUGCATT against Ppcdc, the z-score was inactive: 0.853.
Take GGAACAUUUUGAGAUUUACTT against Abca5: the z-score is inactive: 1.2.
In the case of GGAUGAGGGCGACUACUUUTT against Thy1, the z-score was inactive: 1.07.
Turning to GGUCGCUGUGAAAAUAAUATT against Mark1, the z-score was inactive: 0.825.
For GGUCCCAGUCUAUGAAAACTT against Pym1, the z-score was inactive: 1.81.
For GGCAGAGGAGAAAAUCAAGTT against Cux2, the z-score is inactive: -0.352.
The result for GGACAGAGUUACCUAGGCATT against Ticrr reads active: -2.81.
The result for GGCUUUGGACUGUAUGACCTT against Ccdc159 reads inactive: -0.923; that for GGAUCUUCUCUGCCUAUAUTT against Arpc1b, inactive: -1.42; that for “GGAAUGUGUCUUCUCAAGUTT against A530021J07Rik”, active: 2.35.
For CGAAACUACCUUCUCAAGCTT against Kdm3b, the z-score is inactive: -1.6.
Regarding GGGAAAACAGGUACGACUGTT against Odf1, the z-score was inactive: -0.743.
For GGGAAAUGUUUUCCAAAGATT against Tep1, the z-score was inactive: 0.776.
The result for GGAAGUUCUACACUCGUCUTT against Fzd2 reads inactive: -1.11.
With GGACUAUUCUACCAAGUACTT against Txnl4a, the z-score is inactive: 0.162.
Turning to CCCUCUGAACUAUAUGACUTT against Olfr700, the z-score is inactive: -1.09.
With GGCAGAUCUAUUGACAAACTT against Nts, the z-score is inactive: 0.939.
CCUCAUUGUACCUUGCUGATT against Surf6: the z-score is inactive: -0.954.
In the case of ACUUCUACUGAAGUGAAUUTT against Krtap19-1 it was inactive: -1.1; in that of GGUUUGUUUGUUUUUUGGUTT against Ajuba, active: 2.96; in that of GGGUAGCUAAGAAAAAGAUTT against Rbm48, inactive: 0.864.
The result for GAAUCUUACCCUCUUUCUCTT against Olfr541 reads inactive: 1.18.
Regarding GCAUAUCGCUUUUGUGAGCTT against E2f6, the z-score is active: 2.31.
For the sequence CCUGGUUUACAUGUACGGGTT against Tap2, the z-score was inactive: 0.494.
Regarding CCAACCCUCCAUCAAAGAATT against Rnaseh2b, the z-score was inactive: 1.91.
With GGCGAGAUCCUUCAAGCCUTT against Wdr6, the z-score is inactive: 1.45.
In the case of GGACUCUGACAAUUUUAUCTT against Dcaf8l it was inactive: -0.0166; in that of CCCACCACAGUAAAGGAACTT against Rwdd3, inactive: 1.29.
CCACAGUCGCUUUCUUUUATT against Fam228b: the z-score is inactive: -1.35.
Regarding CCGUGAUCUUAAACCCUCUTT against Mapk7, the z-score was inactive: -0.988.
Regarding GGCAGCAGCUACUCCUAUATT against Krt6a, the z-score is inactive: -1.82.
GGAGUAGCUCUUCUGGAUCTT against Kank3: the z-score is inactive: 1.61.
With CCUGAAAGCUAAUAUGAAATT against Defb44-ps, the z-score was inactive: 0.0593.
Take CGCACCUGUAACUUAUCAGTT against Rac1: the z-score is inactive: 0.099.
GGAAGAAGAUAAAGAGCGGTT against Nrgn: the z-score was inactive: -0.708.
Turning to GGAGAAGAACGAGAAACGUTT against Nyap2, the z-score was inactive: 0.904.
In the case of GUACGUCAAGAGCCUGCGUTT against Fam110a it was active: -2.65.
In the case of GGUUGACUCUACAAAAUACTT against Muc5b it was inactive: -0.656.
The result for GGGUGGACUAGGAGUGGAUTT against Cdhr4 reads inactive: 0.316; that for GCGAUGUGAGCAAAUGCCUTT against Twsg1, inactive: 0.656.
On to CCCUUAGAGCUCUUAAAGATT against Slc25a51, for which the z-score is inactive: -0.549.
Consider GGCCAAGGAUCCAUCUGUATT against Magee1, for which the z-score is inactive: 0.11.
For the sequence GACUGCUGUUUAGGAAUCGTT against Znhit3, the z-score was inactive: 0.787.
Consider GGAACUGAUGAGAACACUATT against Gbp2b, for which the z-score was inactive: 0.892.
The result for GGAGCAGAUGGUUUUCGAGTT against Copz2 reads inactive: -0.154; that for CCUGAAAGAUAACAAGUGGTT against Rnls, inactive: 0.0112; that for GGGUUUUCUUUCUUUCUCUTT against Otub1, inactive: 0.0369.
As for GCCUUUGAGUUUUUCAUGUTT against Olfr314, the z-score is inactive: 0.98.
As to GGCCGUUUGUGGUCUACUGTT against Trmt6, the z-score was inactive: 0.858.
Take CCUAGGCACAGCUUUGUAUTT against Apof: the z-score was inactive: -0.595.
In the case of GGCAAUUCAAACAAUGCAGTT against Orm1 it was inactive: -1.41; in that of GGUACGGUAUGGAGAUCGGTT against Atpaf2, inactive: 0.593.
GGAUCACAGAAGGUCCCUATT against Nox4: the z-score was inactive: -1.91.
In the case of CCCUACAAGAAUUUUGAGATT against Fam166a it was inactive: -1.42; in that of GGUUCCUUACGAUGUGUCATT against Nsg1, inactive: -0.68; in that of CCAAAAUUCGAACAAGUGATT against Mat2b, inactive: 0.199.
As to GGCCCAAUGUCACUCACUATT against Sirt3, the z-score was inactive: -0.498.
In the case of CCUUUCUAGGUGACUACUUTT against Pemt it was inactive: 1.81; in that of GGAAUGAAAAGGUAUGUGATT against Wipi1, inactive: -0.914; in that of GCAGCUAAGCAACUUCAAUTT against Cox20, inactive: 0.659.
In the case of GCCAAAGGACAGUUGAAGUTT against Mogs it was inactive: 0.795.
Take GAUAUCUUUAGCAAUGACATT against Olfr159: the z-score is inactive: 0.538.
Turning to GCUGUAUCGGGUUAAUGACTT against Cpne7, the z-score was inactive: -0.55.
For the sequence GCUCCUCGUCUCAUGAUAATT against Smc4, the z-score is inactive: 0.214.
With GGUUCUGGCUGGAAUCUACTT against Gnl1, the z-score was inactive: -0.987.
In the case of GGGACCUGAUUGUUGUUUATT against Bcap31 it was inactive: -0.787.
Regarding GGUGAUGCUUCAUAAAAAUTT against Utp6, the z-score is inactive: -1.69.
As to GGUACCAGAGGAUUCUGAUTT against Pcdhga8, the z-score was inactive: 0.153.
For the sequence GGCAUGUGUGCCUAAAACCTT against Sprr4, the z-score is inactive: 0.204.
Take GGUAGAGCAGAAUUGAAAATT against Bmx: the z-score is inactive: 1.36.
As for GGGACUUCAUCCUCAUUUCTT against Smcr8, the z-score is inactive: -1.43.
For GCUGUCUCUACGUUGGAGATT against Adamts2, the z-score was inactive: 0.145.
As for CCUGCGUCUCCAGUAGUUUTT against Reps1, the z-score was inactive: 0.932.
In the case of GGAACAACGGAAAAGCGAGTT against Ankrd1, the z-score was inactive: 1.25.
Turning to GGGAAUUUGCUCCUGAAAGTT against Pcdhb6, the z-score was inactive: -0.936.
Regarding UGUAUCUUUCUGUAGUUCUTT against Taar7e, the z-score is inactive: 0.195.
On to GCAAAGGGUGAUUCUUACCTT against Pifo, for which the z-score is inactive: -0.431.
With GGACAAGCAGUGGCUAUUUTT against Arhgef19, the z-score was inactive: -0.042.
As to GGAAAGCACAGACAACAUATT against Rfxap, the z-score is inactive: 0.139.
Consider GGAAUCAUCAGGUUCAUCATT against Fpr1, for which the z-score was inactive: 0.661.
On to GGAGUCCUCAAUACUUUCUTT against Iffo2, for which the z-score is inactive: -0.102.
In the case of GGACCAGCUAAAUAUUAGUTT against Rgs2 it was inactive: -0.315; in that of GGCAGUGGAGUUAACAACATT against Dsg1b, inactive: -0.12; in that of GGUCAUCACGAUUGUUUUGTT against Cyp1a1, inactive: -0.16.
With GGAUCAUCUCAAGUCUUACTT against F7, the z-score is inactive: 0.124.
The result for GGAAGAACUUCAGGAAAAUTT against Clec12a reads inactive: -1.16; that for GUGGACUCCAAGCUACAAATT against Olfr1047, inactive: -0.968.
For the sequence GGUUGUAAACCACGUGGACTT against Adam8, the z-score was inactive: 1.66.
As for CGGAGCUCAAACAUCUGAUTT against Slirp, the z-score is inactive: -1.61.
In the case of GGUGUGCCUUUUCAAGAAATT against Hebp2 it was inactive: -1.38.
On to GCUAGUCACCAUUCUGAUUTT against Olfr141, for which the z-score is inactive: 0.105.
GGCCAAGAAAAUCCUGUGGTT against Mfsd5: the z-score is active: -2.71.
For the sequence GCUUCGAGAGUCAACUAUGTT against Mecom, the z-score was inactive: 0.232.
Regarding GGAGAAGUCUGGCAUCAUATT against Mapkapk5, the z-score is inactive: 1.33.
In the case of GGCUGAACCUCAAGGUCAUTT against Chst1 it was inactive: 0.409; in that of GAACUUUGCCAUUGAUUUGTT against Ndufs6, inactive: 1.63.
Take ACUUCACGAUGGAAAAAUUTT against Gm9732: the z-score is inactive: -1.63.
Take GGCUUACUUGAAGCAUUUATT against Plcb4: the z-score is active: 2.13.
With GGGCUUUCCUCAAGGUAGUTT against Olfr62, the z-score was inactive: -1.39.
The result for GCCUGAUGUUGUUUCCAAATT against Lias reads active: 2.67; that for CCCAUGAUCUGGAAGAGACTT against Il1a, active: -2.08.
